Test results: publication PMC11166663
No constants are given. Whether binding was seen depends on the method and setting. Binding seen in cells or lysates may run through a third protein. Some entries that bind do so weakly or less than the wild type.

Amino acid sequences for entries named in this document (tags omitted).
UniProt Q9Y4B6: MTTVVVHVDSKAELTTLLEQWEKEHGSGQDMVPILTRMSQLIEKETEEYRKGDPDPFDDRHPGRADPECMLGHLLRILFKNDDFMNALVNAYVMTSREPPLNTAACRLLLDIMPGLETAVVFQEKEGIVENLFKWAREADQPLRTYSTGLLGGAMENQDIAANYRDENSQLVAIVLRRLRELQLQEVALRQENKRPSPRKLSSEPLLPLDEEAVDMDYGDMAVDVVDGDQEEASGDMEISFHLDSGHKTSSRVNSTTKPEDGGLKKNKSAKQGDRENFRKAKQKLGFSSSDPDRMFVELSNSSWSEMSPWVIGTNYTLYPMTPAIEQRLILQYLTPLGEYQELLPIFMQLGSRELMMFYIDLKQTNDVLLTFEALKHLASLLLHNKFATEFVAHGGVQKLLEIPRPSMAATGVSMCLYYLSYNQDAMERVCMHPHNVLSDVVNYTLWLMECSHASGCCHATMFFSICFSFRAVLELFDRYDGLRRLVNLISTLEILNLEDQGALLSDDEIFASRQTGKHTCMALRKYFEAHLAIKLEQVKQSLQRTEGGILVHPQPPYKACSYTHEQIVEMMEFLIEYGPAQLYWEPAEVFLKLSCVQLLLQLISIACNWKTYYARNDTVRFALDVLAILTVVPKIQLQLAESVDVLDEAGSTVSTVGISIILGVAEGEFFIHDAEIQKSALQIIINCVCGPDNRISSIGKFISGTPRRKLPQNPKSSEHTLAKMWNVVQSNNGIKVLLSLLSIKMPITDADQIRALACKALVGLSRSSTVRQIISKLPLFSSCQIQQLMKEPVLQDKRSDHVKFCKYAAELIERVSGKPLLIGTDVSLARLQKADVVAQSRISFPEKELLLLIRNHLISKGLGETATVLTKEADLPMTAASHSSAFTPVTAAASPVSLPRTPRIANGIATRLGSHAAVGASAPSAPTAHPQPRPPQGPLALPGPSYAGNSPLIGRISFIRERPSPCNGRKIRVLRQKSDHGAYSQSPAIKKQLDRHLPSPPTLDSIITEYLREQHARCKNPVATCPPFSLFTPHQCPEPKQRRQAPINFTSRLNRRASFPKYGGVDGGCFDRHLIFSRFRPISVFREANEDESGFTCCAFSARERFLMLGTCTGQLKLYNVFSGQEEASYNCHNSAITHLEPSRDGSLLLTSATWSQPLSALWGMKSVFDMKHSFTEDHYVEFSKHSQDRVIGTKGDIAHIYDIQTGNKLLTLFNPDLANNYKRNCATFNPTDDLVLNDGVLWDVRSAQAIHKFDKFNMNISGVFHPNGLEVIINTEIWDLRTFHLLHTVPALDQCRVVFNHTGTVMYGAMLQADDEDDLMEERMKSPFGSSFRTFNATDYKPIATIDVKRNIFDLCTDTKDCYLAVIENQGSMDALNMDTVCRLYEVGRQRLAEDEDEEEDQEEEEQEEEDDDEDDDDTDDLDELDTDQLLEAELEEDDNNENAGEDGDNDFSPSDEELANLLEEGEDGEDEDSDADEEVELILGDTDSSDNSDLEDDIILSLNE

How the values were obtained:
Flag-Rheb = Flag-Rheb (UniProt Q15382); assay: co-IP; 293T cells transfected with empty vector, Flag-Rheb or Flag-DCAF1 for 48 h; NP-40 lysis buffer; IP with anti-Flag and agarose beads at 4 °C overnight; immunoblot of endogenous partners
[1] = biological target: Ras homologue enriched in brain (Rheb), endogenous (human (endogenous in HEK293T, Huh7, HCT116 and EC109)) (UniProt Q15382); assay: co-IP; endogenous proteins in Huh7, HCT116 and EC109 cells; NP-40 lysis buffer; IP with anti-Rheb or anti-DCAF1 and agarose beads at 4 °C overnight; unrelated IgG as negative control; immunoblot
[2] = biological target: DDB1-CUL4-associated factor 1 (DCAF1), endogenous (human (endogenous in HEK293T, Huh7, HCT116 and EC109)) (UniProt Q9Y4B6); assay: as above
Flag-DCAF1 = Flag-DCAF1 (UniProt Q9Y4B6); assay: co-IP; 293T cells transfected with empty vector, Flag-Rheb or Flag-DCAF1 for 48 h; NP-40 lysis buffer; IP with anti-Flag and agarose beads at 4 °C overnight; immunoblot of endogenous partners

| binding (Flag-Rheb) | binding [1] | binding [2] | binding (Flag-DCAF1) | Substance |
| --- | --- | --- | --- | --- |
| binds |  |  |  | CUL4a, endogenous (from UniProt Q13619 1-759) |
| binds |  |  |  | DDB1, endogenous (from UniProt Q16531 1-1140) |
| binds | binds |  |  | DDB1-CUL4-associated factor 1 (DCAF1), endogenous (from UniProt Q9Y4B6 1-1507) |
|  |  | binds | binds | Ras homologue enriched in brain (Rheb), endogenous (from UniProt Q15382 1-184) |
